PubChem BioAssay AID504791 – Drosophila RNAi Screening Center – 2011
The screen tested about 23,000 reagents; this is a random part of those that have a named target and a result. Over the whole deposit, 199 (0.86%) are marked active. 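Plate-scaled ratios behind the calls are not deposited; printed light signals are raw; many rows marked increased or decreased are still called inactive.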 Unmarked entries are inactive. A plus sign joins genes that one reagent is predicted to hit. Not given: the direction of the score.

Test: 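Genes whose knock-down strengthens or weakens small-RNA reporter silencing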 (primary screen)
Cells: Drosophila S2-derived reporter cells
Reagent: long dsRNA against Drosophila genes, about 150-250 ng dsRNA per well (siRNA assay); about 80-120 ng (miRNA assay)
Timing: about 5 days (siRNA assay); about 4 days (miRNA assay)
Conditions: copper sulfate induction of reporters: 25 µM (siRNA assay); 200 mM stated (miRNA assay), 1-2 days before reading
Measured: 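Dual luciferase assay: Renilla to firefly signal ratio in each well, scaled to the mean ratio of its plate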
Active means: 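First-pass picks had plate-scaled ratios over 1.5 for the siRNA assay, over 1.6 for the miRNA assay, or under 0.6; two distinct dsRNAs had to score alike on retest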

| Gene | amplicon | stable siRNA reporter change | miRNA reporter change | stable assay Renilla, run 1 (luminescence) | stable assay firefly, run 1 (luminescence) |
| --- | --- | --- | --- | --- | --- |
| CG8202 (GeneID 41043) | DRSC16396 | – | – | 6146 | 3.76e5 |
| BigH1 (GeneID 41780) | DRSC15491 | – | – | 9720 | 4.09e5 |
| maf-S (GeneID 37336) | DRSC07348 | – | – | 6955 | 4.37e5 |
| Fmo-1 (GeneID 37814) | DRSC04328 | – | – | 8231 | 1.46e6 |
| TfIIEbeta (GeneID 38527) | DRSC08701 | – | – | 5711 | 4.95e5 |
| CCDC53 (GeneID 34097) | DRSC03056 | – | – | 7640 | 3.97e5 |
| Galphao (GeneID 36104) | DRSC07430 | – | – | 7442 | 3.69e5 |
| subdued (GeneID 42340) | DRSC15137 | – | – | 7853 | 2.56e5 |
| CG6028 (GeneID 42589) | DRSC15951 | – | – | 8041 | 3.71e5 |
| CG7031 (GeneID 42704) | DRSC16178 | reporter ratio raised past the hit cutoff | – | 7306 | 2.14e5 |
| CG7031 (GeneID 42704) | DRSC23028 | – | – | 5656 | 3.91e5 |
| CG1971 (GeneID 43755) | DRSC15406 | – | – | 7804 | 4.45e5 |
| Eglp3 (GeneID 37738) | DRSC04293 | – | – | 6244 | 3.36e5 |
| Ran-like (GeneID 39666) | DRSC10918 | – | – | 9135 | 2.69e5 |
| fne (GeneID 32245) | DRSC20332 | – | – | 4551 | 4.84e5 |
| fne (GeneID 32245) | DRSC22418 | – | – | 5168 | 6.48e5 |
| CG14297 (GeneID 42260) | DRSC14776 | reporter ratio lowered past the hit cutoff | – | 6027 | 5.77e5 |
| CG14856 (GeneID 41790) | DRSC14980 | – | – | 6572 | 3.27e5 |
| CG13454 (GeneID 39676) | DRSC10001 | – | – | 3624 | 3.64e5 |
| CG8010 (GeneID 32921) | DRSC20072 | – | – | 6762 | 3.58e5 |
| CG13488 (GeneID 37496) | DRSC04133 | – | – | 6959 | 4.78e5 |

In a second layout: 2 of the entries above
{"Gene":"CG14856 (GeneID 41790)","amplicon":"DRSC14980","stable assay Renilla, run 1 (luminescence)":6572,"stable assay firefly, run 1 (luminescence)":3.27e5}
{"Gene":"CG13454 (GeneID 39676)","amplicon":"DRSC10001","stable assay Renilla, run 1 (luminescence)":3624,"stable assay firefly, run 1 (luminescence)":3.64e5}

The list goes on.
| Gene | amplicon | stable siRNA reporter change | miRNA reporter change | stable assay Renilla, run 1 (luminescence) | stable assay firefly, run 1 (luminescence) |
| --- | --- | --- | --- | --- | --- |
| CG15429 (GeneID 33637) | DRSC00444 | – | – | 8287 | 5.55e5 |
| SkpC (GeneID 32996) | DRSC20375 | – | – | 5948 | 5.03e5 |
| Mgat3 (GeneID 318981) | DRSC01305 | – | – | 5895 | 5.47e5 |
| park + Targ3 | DRSC11617 | – | – | 9642 | 5.04e5 |
| CG12384 (GeneID 36224) | DRSC06145 | reporter ratio raised past the hit cutoff | – | 3424 | 3.69e5 |
| sei (GeneID 37843) | DRSC04713 | – | – | 2.48e5 | 9.13e5 |
| tx (retired record) (GeneID 44875) | DRSC16931 | – | reporter ratio lowered past the hit cutoff (active) | 7815 | 4.73e5 |
| CG32085 (GeneID 39311) | DRSC10138 | – | – | 5710 | 5.45e5 |
| CG32085 (GeneID 39311) | DRSC10139 | – | – | 5311 | 4.62e5 |
| CG32085 (GeneID 39311) | DRSC10576 | – | – | 7860 | 5.29e5 |
| CG9919 (GeneID 32598) | DRSC20219 | – | – | 6250 | 5.69e5 |
| CG15914 (GeneID 32542) | DRSC19739 | – | – | 5898 | 3.27e5 |
| Acsx1R (GeneID 42352) | DRSC14339 | – | – | 8323 | 3.60e5 |
